Values from PubChem BioAssay AID1259308 (NCATS, 2017)
The whole screen tested about 59,000 reagents; this is an unselected part. About 1,510 of them (2.6%) were called active. 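Calls use total luciferase alone and ignore viability, so some active siRNAs may act by altering cell number.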 A number with no mark means an inactive call. Reagents against one gene are numbered here.

Aim: 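Candidate targets for better recombinant protein yield in mammalian cells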 (primary screen)
System: human HEK293 embryonic kidney cells stably expressing firefly luciferase (HEK-CMV-Luc2-Hygro)
Reagents: single siRNA against human genes, 0.8 pmol siRNA per well
Duration: 72 h
Measured: 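Luciferase light (ONE-Glo) measured on one replicate plate set and viability (CellTiter-Glo) on the other, scaled to a negative control siRNA, with robust z-scores and luciferase per cell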
Reading the numbers: total luciferase, z-score and total luciferase, % of control: higher = more reporter protein produced; luciferase per cell, z-score: higher = more reporter output per viable cell; viable cells, % of control: higher = more viable cells
Rule for the call: 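Active when the median/MAD z-score for overall luciferase is greater than 3; a gene was taken forward for validation with new siRNAs if at least two of its three siRNAs passed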
Calls: active = raised luciferase; inactive = no rise

gene	reagent no.	total luciferase, z-score	total luciferase, % of control	luciferase per cell, z-score	viable cells, % of control
KRTAP4-2	1	-0.344	75.1	-0.317	91.2
KRTAP4-2	2	-1.32	55.6	-1.41	90.1
KRTAP4-2	3	5.72 (active)	196	3.8	80.3
IFNL2	1	-0.066	80.6	0.197	85.5
IFNL2	2	-0.754	66.9	-0.534	86
IFNL2	3	1.37	109	0.739	100
LIPT2	1	0.0506	82.9	-0.136	96
LIPT2	2	0.156	85	0.485	83.6
LIPT2	3	0.651	94.8	0.831	85.2
ZNF782	1	-0.296	76	0.621	72.1
ZNF782	2	4.6 (active)	173	2.54	99.2
ZNF782	3	2.12	124	1.09	104
SMURF1	1	-0.494	72.1	-0.472	91.2
SMURF1	2	-2.33	35.5	-1.78	63.4
SMURF1	3	-0.14	79.1	-0.167	92.4
MIR924HG	1	-0.515	71.6	-0.588	93.5
MIR924HG	2	1.78	117	2.76	63.3
MIR924HG	3	-2.34	35.4	-2.47	75.7
ZSCAN18	1	2.67	135	3.46	60.7
ZSCAN18	2	0.419	90.2	0.496	88.5
ZSCAN18	3	0.4	89.8	0.573	86.3
ACP3	1	0.265	87.2	0.296	90.1
ACP3	2	1.61	114	0.935	99.6
ACP3	3	0.943	101	-0.0401	114
TFDP2	1	3.19 (active)	145	1.86	99.3
TFDP2	2	-0.523	71.5	-0.467	90.3
TFDP2	3	0.187	85.6	-0.112	98.5
LAMB3	1	-0.23	77.3	-0.253	92.3
LAMB3	2	-0.566	70.6	-0.785	97.1
LAMB3	3	-0.818	65.6	-0.886	92.6
DPH6	1	-0.171	78.5	1.14	65
DPH6	2	-0.398	74	-0.809	102
DPH6	3	2.18	125	2.4	74.3
CD72	1	0.625	94.3	0.485	92.8
CD72	2	-2.06	40.9	-2.24	82.3
CD72	3	0.787	97.5	1.28	77.7
EXOSC5	1	-0.0556	80.8	1.47	61.4
EXOSC5	2	-1.09	60.2	-1.2	92.4
EXOSC5	3	0.108	84	0.703	78
SASS6	1	-1.5	52.1	-0.624	68.6
SASS6	2	-0.706	67.8	-0.838	94.5
SASS6	3	-0.621	69.5	-0.6	91
SETD2	1	-0.658	68.8	-0.323	83.7
SETD2	2	0.607	94	0.317	96.6
SETD2	3	0.187	85.6	0.76	78.3
DCN	1	-0.537	71.2	-1.43	116
DCN	2	2	122	0.717	112
DCN	3	-2.91	23.9	-2.58	52.7
SLC9A1	1	1.8	118	1.68	84.5
SLC9A1	2	0.131	84.5	-0.697	113
SLC9A1	3	1.36	109	1.26	87.3
RTCB	1	-0.139	79.1	-0.733	107
RTCB	2	1.33	108	1.04	92.2
RTCB	3	2.38	129	1.94	86.7
SCGB1B2P	1	-0.0206	81.5	0.211	86.1
SCGB1B2P	2	0.262	87.1	0.457	86.3
SCGB1B2P	3	-0.167	78.6	-0.413	97.9
